Reference: PubChem BioAssay AID1224826 (NIAID, 2016)

Aim: 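Regulators of Tlr4 signalling leading to Tnf-alpha expression in macrophages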 (primary screen)
Cell system: RAW264.7 G9 macrophages from mouse bearing reporters for p65 (GFP) and the Tnf promoter (mCherry)
Reagent: siRNA pool against mouse genes, 100 nM
Duration: 16 h of LPS stimulation, after 2 days of siRNA transfection
Conditions: bacterial lipopolysaccharide (Salmonella minnesota R595), 10 ng/ml
Measured: 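Imaged Tnf reporter mCherry in nuclei, minus background, normalised per plate to the median and expressed as robust z-scores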
Scale: Tnf reporter robust z-score: higher = stronger Tnf promoter reporter signal after LPS
Call rule: 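a well counts as active at a score of -1.3 or below (Tlr4 knock-down control median) or above 3 (raised signal); controls and wells holding fewer than 50 cells are excluded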
Calls: active = Tnf reporter clearly lowered or raised; inactive = no clear change in Tnf reporter
The deposit covers about 17,000 reagents; shown is a random part of them. Over the whole deposit, about 1,110 (6.6%) got an active call. 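Active means lowered or raised reporter signal; replicate intensities are raw and not normalised per plate.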 Unmarked entries are inactive. The numbers tell different reagents against one gene apart. Some reagents were tested in more than one well and are listed for each. Not all columns of the deposit are shown.

gene knocked down | reagent no. | Tnf reporter robust z-score | fewer than 50 cells in well
Lair1 | 1 | -0.3 | enough cells in well
Rab22a | 1 | -0.45 | enough cells in well
Fbxo41 | 1 | 1.88 | enough cells in well
Col4a5 | 1 | 0.31 | enough cells in well
Med30 | 1 | -0.06 | enough cells in well
Rtp4 | 1 | 0.02 | enough cells in well
Dusp7 | 1 | 0.98 | enough cells in well
Mtdh | 1 | 4.73 (active) | enough cells in well
Spink2 | 1 | 0.43 | enough cells in well
Pcsk1 | 1 | 0.52 | enough cells in well
Dipk2b | 1 | -1 | enough cells in well
Or4x11 | 1 | -0.13 | enough cells in well
Vmn1r229 | 1 | -0.03 | enough cells in well
Prss43 | 1 | 0.89 | enough cells in well
Chrm1 | 1 | 0.07 | enough cells in well
Slc26a11 | 1 | – | fewer than 50 cells per well; well left out of calls
Adgrb1 | 1 | -0.36 | enough cells in well
Sh3bp1 | 1 | -0.25 | enough cells in well
Grm5 | 1 | 0.22 | enough cells in well
C730014E05Rik | 1 | 0.72 | enough cells in well
Tmem64 | 1 | -0.5 | enough cells in well
Tcerg1 | 1 | -0.04 | enough cells in well
Stard10 | 1 | 3.19 (active) | enough cells in well
Foxp3 | 1 | 0.16 | enough cells in well
Col15a1 | 1 | -0.75 | enough cells in well
Commd10 | 1 | 0.42 | enough cells in well
Sema4f | 1 | -1.16 | enough cells in well
Fbxw26 | 1 | 0.51 | enough cells in well
Ubxn2a | 1 | 1.14 | enough cells in well
Defb8 | 1 | 0.46 | enough cells in well
Tmem44 | 1 | 0.41 | enough cells in well
Ddx21 | 1 | 1.27 | enough cells in well
Zfp276 | 1 | -1.29 | enough cells in well
Tubb6 | 1 | -0.36 | enough cells in well
Cfap65 | 1 | 0.63 | enough cells in well
Gata5 | 1 | -1.46 (active) | enough cells in well
Pip5kl1 | 1 | 0.46 | enough cells in well
Or6x1 | 1 | 2.38 | enough cells in well
Ifit1 | 1 | 0.19 | enough cells in well
Med31 | 1 | – | fewer than 50 cells per well; well left out of calls
Sqle | 1 | -0.33 | enough cells in well
Plxnb1 | 1 | -0.57 | enough cells in well
Prkar2a | 1 | 1.42 | enough cells in well
Dppa4 | 1 | -0.53 | enough cells in well
6030498E09Rik | 1 | 0.35 | enough cells in well
Pcdhga8 | 1 | 0.83 | enough cells in well
Pde6g | 1 | 0.11 | enough cells in well
Or2ag19 | 1 | 0.26 | enough cells in well
Rbbp9 | 1 | 0.56 | enough cells in well
Or4f15 | 1 | -0.19 | enough cells in well
Slc7a12 | 1 | 0.01 | enough cells in well
Scgb2b26 | 1 | -0.19 | enough cells in well
Scgb2b26 | 2 | 0.53 | enough cells in well
Birc6 | 1 | -0.26 | enough cells in well
Aldh1a1 | 1 | -0.55 | enough cells in well
Renbp | 1 | -0.37 | enough cells in well
Parp4 | 1 | 1.15 | enough cells in well
Or1j17 | 1 | -0.59 | enough cells in well
Aadat | 1 | 0.06 | enough cells in well
Pde3a | 1 | 0.88 | enough cells in well
Or4c120 | 1 | 0.7 | enough cells in well
Tbc1d9 | 1 | 0.04 | enough cells in well
Sfn | 1 | 0.88 | enough cells in well
Adamtsl2 | 1 | -0.28 | enough cells in well
Avpr1a | 1 | -0.35 | enough cells in well
Avpr1a | 1 | -0.31 | enough cells in well
Olfr257 | 1 | 0.15 | enough cells in well
Scamp3 | 1 | 0.43 | enough cells in well
Plac9 | 1 | -0.59 | enough cells in well
Polr2b | 1 | -1.81 (active) | enough cells in well
Camk4 | 1 | -0.86 | enough cells in well
Camk4 | 1 | -0.07 | enough cells in well
R3hdm1 | 1 | 0.44 | enough cells in well
Hnrnph2 | 1 | -0.73 | enough cells in well
Cdh20 | 1 | -0.16 | enough cells in well

10 of these entries, reformatted:
gene knocked down,reagent no.,Tnf reporter robust z-score,fewer than 50 cells in well
Scgb2b26,1,-0.19,enough cells in well
Scgb2b26,2,0.53,enough cells in well
Birc6,1,-0.26,enough cells in well
Aldh1a1,1,-0.55,enough cells in well
Renbp,1,-0.37,enough cells in well
Parp4,1,1.15,enough cells in well
Or1j17,1,-0.59,enough cells in well
Aadat,1,0.06,enough cells in well
Pde3a,1,0.88,enough cells in well
Or4c120,1,0.7,enough cells in well
